Source: doi:10.1101/2023.01.12.523764
Results are given in words; binding and its absence hold for the method and conditions named. Binding seen in cells or lysates may run through a third protein. Some results given as binding are weak or reduced against the parent protein; the word gives no strength. For some of these results: Where a sequence is shown, tags or fusion partners need not be part of it.

Protein sequences, listed by entry. Tags and fused reporters are not part of them. Lines headed by an entry give the natural chain unless they say otherwise; changes in a name come on top.
UniProt Q96P20: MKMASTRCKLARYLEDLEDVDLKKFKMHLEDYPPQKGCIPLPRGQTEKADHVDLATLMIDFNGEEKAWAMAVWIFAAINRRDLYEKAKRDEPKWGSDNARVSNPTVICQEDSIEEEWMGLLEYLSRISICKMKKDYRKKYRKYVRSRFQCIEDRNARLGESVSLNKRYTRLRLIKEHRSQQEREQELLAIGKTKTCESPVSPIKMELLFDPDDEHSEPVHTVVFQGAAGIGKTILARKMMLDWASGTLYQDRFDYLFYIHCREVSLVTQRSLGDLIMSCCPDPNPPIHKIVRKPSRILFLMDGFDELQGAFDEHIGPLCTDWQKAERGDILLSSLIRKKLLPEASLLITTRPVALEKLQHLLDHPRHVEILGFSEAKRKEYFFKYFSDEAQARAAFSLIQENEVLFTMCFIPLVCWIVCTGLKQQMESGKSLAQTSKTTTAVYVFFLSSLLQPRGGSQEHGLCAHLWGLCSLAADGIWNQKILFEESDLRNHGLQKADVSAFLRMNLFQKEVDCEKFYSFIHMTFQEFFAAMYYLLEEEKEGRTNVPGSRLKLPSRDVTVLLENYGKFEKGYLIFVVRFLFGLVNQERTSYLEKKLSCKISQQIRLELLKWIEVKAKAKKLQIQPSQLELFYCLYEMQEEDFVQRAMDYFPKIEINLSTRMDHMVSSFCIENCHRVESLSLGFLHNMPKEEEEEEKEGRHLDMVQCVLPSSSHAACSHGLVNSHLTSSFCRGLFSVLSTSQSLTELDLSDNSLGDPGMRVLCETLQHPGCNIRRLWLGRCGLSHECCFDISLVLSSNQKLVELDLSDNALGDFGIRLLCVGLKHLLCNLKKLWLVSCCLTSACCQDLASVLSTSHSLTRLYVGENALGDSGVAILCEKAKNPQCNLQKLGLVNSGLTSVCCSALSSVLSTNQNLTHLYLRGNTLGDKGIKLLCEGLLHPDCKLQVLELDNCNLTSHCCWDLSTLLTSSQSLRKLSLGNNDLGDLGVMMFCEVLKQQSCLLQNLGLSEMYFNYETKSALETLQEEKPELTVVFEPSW
UniProt Q9ULZ3: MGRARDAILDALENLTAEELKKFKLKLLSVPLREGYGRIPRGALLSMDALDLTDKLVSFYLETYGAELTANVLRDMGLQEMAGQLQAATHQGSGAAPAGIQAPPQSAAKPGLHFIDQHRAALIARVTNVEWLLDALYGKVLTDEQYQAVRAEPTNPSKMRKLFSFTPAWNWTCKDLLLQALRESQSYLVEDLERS
UniProt P29466: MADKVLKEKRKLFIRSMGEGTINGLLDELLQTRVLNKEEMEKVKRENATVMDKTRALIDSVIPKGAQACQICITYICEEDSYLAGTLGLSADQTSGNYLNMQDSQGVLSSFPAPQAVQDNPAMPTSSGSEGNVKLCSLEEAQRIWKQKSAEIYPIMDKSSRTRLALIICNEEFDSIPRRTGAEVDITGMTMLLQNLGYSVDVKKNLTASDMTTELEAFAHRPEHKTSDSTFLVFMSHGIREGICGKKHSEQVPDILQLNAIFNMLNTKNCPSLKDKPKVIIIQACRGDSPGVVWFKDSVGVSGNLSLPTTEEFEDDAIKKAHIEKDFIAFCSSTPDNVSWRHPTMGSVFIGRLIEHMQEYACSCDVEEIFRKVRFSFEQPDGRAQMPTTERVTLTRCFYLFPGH
UniProt Q7Z434: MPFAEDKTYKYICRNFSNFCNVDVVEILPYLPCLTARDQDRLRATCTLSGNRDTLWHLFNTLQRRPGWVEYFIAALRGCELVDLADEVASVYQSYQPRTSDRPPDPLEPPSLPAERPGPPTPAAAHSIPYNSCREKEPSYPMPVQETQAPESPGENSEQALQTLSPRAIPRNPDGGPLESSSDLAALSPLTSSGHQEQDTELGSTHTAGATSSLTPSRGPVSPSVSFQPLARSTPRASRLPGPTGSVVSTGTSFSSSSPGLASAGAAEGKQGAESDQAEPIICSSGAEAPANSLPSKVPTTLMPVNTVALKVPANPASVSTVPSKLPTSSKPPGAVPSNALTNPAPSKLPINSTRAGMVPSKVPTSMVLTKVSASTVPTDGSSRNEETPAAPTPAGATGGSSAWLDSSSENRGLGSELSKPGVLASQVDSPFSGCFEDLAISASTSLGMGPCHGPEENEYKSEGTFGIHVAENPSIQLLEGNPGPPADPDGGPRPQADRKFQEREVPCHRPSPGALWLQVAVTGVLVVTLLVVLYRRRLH

Experiments:
Experiment in all cases: co-IP
Myc-MARCH5 = target: T1, Myc-MARCH5 (UniProt Q9NX47)
T1 sequence: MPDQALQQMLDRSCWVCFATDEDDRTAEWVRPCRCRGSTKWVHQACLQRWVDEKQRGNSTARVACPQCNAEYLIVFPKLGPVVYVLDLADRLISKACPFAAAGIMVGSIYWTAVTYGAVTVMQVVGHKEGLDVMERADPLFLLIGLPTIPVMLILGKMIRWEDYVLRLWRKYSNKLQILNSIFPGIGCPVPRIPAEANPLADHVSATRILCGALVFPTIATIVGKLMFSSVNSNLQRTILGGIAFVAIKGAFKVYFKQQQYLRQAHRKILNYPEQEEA

FLAG-NLRP3 K324R = FLAG-NLRP3 K324R (UniProt Q96P20)
FLAG-NLRP3 K430R = FLAG-NLRP3 K430R (UniProt Q96P20)

Row | binding (Myc-MARCH5) | binding (FLAG-NLRP3 K324R) | binding (FLAG-NLRP3 K430R) | Substance
1 | binds |  |  | FLAG-ASC (from UniProt Q9ULZ3 1-195)
2 | no binding |  |  | FLAG-pro-caspase-1 (from UniProt P29466 1-404) (enzyme)
3 |  | binds | binds | MAVS co-precipitated with NLRP3 K324R and K430R (Fig EV6C) (from UniProt Q7Z434 1-540)
